Measured values as given in PubChem BioAssay AID624297 (National Center for Advancing Translational Sciences (NCATS), 2012).
About 6,200 (1.8%) of roughly 340,000 compounds were called active. Inconclusive means that the source gave no clear call. Such entries were picked first, then a sample of the others. The call rests on the fitted dose curve; in most records, active means well fitted activation curve with a large enough effect; inconclusive means small, poorly fitted or top-dose-only effect; inactive means no such curve, though single readings can be large or run the other way. A potency beside an inconclusive call is a rough fit, not a confirmed value.
Potency means the concentration at half of the fitted maximal effect.

Assay: A quantitative high throughput screen for small molecules that induce DNA re-replication in SW480 colon adenocarcinoma cells. Further: nearly all actives have a fitted effect of over 55% in size. On re-replication activation: % of control where 0% means no effect.
Conditions: Hoechst DNA content imaging, 48 h; re-replication activation: at 46.1 µM (top of the series) unless noted
In short: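 Hoechst fluorescence of nuclei (405 nm excitation, 500-530 nm emission) measured by plate-scanning imager after 48 hr compound exposure at 37 C; re-replication scored as increased number of nuclei with elevated intensity.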
For `O=C(Nn1c(-c2ccccc2)nc2ccccc2c1=O)c1cccs1`, the Potency was inconclusive: 23.1 µM [activator, single point]. In the case of `O=C1C2C3C=CC(C3)C2C(=O)N1c1ccc2ccccc2c1` (stereo not drawn), the Potency is reported as inconclusive: 16.4 µM [activator, single point]. In the case of `F[Si-2](F)(F)(F)(F)F`, the Potency is reported as “inactive”. With `CC(CCc1ccccc1)NC(=O)C(Cc1ccccc1)NC(N)=O` (stereo not drawn) the Potency was “inactive”. With `COc1cccc(N2C(=O)CC(N3CCN(S(=O)(=O)c4ccccc4[N+](=O)[O-])CC3)C2=O)c1` (stereo not drawn) the Potency was “inactive”. With `O=[N+]([O-])c1ccc2c(c1)C(=NO)c1cc(F)ccc1-2` the Potency was inconclusive: 25.9 µM [activator, single point]. In the case of `COc1cccc(CN2CCN(C(=O)Nc3ccc([N+](=O)[O-])cc3)CC2)c1`, the Potency is reported as inconclusive: 0.146 µM [activator, full curve, poor fit]. In the case of `c1ccc(C2Nc3ccccc3C3OCCCC23)cc1` (stereo not drawn), the Potency is reported as inconclusive: 29.1 µM [activator, partial curve, poor fit]. With `COc1nc(C)ccc1-c1noc(-c2cccs2)n1` the Potency was “inactive”. With `CCOC(=O)c1c(C)oc2c1c(C(c1ccccc1)N1CCOCC1)c(O)c1ccccc12` (stereo not drawn) the Potency was inconclusive: 20.6 µM [activator, single point]. In the case of `Cn1cc(C(=O)N2CCN(c3cccc(Cl)c3)CC2)c(=O)c2cc(S(=O)(=O)N3CCOCC3)ccc21`, the Potency is reported as “inactive”. For `O=C(COc1ccc([N+](=O)[O-])cc1)N1CCN(c2nnc(-c3ccccc3)c3ccccc23)CC1`, the Potency was “inactive”. For `Fc1ccc(N=c2ssnc2Cl)c(F)c1`, the Potency was inconclusive: 23.1 µM [activator, single point]. With `COc1cccc(NC(=O)NC2CCN(Cc3nnnn3Cc3ccc(F)cc3)CC2)c1` the Potency was “inactive”. With `O=CC1=C(c2ccccc2)Oc2ccccc2O1` the Potency was inconclusive: 29.1 µM [activator, single point]. For `CCn1ccnc1CN(C)Cc1nc(-c2ccc(C(=O)OC)cc2)no1`, the Potency was inconclusive: 0.058 µM [activator, full curve, poor fit]. With `C=CCn1c(SCC(=O)c2ccc(O)c(O)c2)nnc1-c1ccc(OC)cc1` the Potency was inconclusive: 1.16 µM [activator, single point]. With `CCN(CC)CCN(Cc1cc2cc(C)ccc2[nH]c1=O)C(=O)Nc1ccccc1OC` the Potency was “inactive”. With `Cc1ccc(NC(=O)/C(C#N)=C/c2cn(CC(=O)NCc3ccco3)c3ccccc23)cc1C` the Potency was inconclusive: 20.6 µM [activator, single point]. For `O=C(Nc1ccc(NC(=O)c2ccccc2Cl)nc1)c1ccco1`, the Potency was “inactive”. In the case of `CC(C)(C)OC(=O)N(Cc1ccccc1)Cc1ccccc1OCc1ccc(NC(=O)C2CCC2)cc1`, the Potency is reported as inconclusive: 16.4 µM [activator, partial curve, poor fit]. With `Fc1ccc(-c2cc(C(F)(F)F)n3ncnc3n2)cc1` the Potency was inconclusive: 6.51 µM [activator, partial curve, poor fit]. With `COc1cccc(-c2c(-c3cc(OC)cc(OC)c3)n(C)c3ccc(-c4cnc(N5CCOCC5)nc4)cc23)c1` the Potency was “inactive”. For `CC(C)=CCN1CCN(Cc2ccc(C#CC(C)(C)O)cc2)CC1CCO` (stereo not drawn), the Potency was inconclusive: 1.64 µM [activator, partial curve, poor fit]. With `CCOc1ccc(N(CC(=O)N2CCN(c3ccc(F)cc3)CC2)S(=O)(=O)c2c(C)noc2C)cc1` the Potency was active: 23.1 µM. For `CN(C)S(=O)(=O)c1ccc(C(=O)NCCSc2ccc(Br)cc2)cc1`, the Potency was inconclusive: 25.9 µM [activator, single point]. With `O=C(NC(=S)Nc1ccc(S(=O)(=O)Nc2ncccn2)cc1)c1ccc(Br)cc1` the Potency was active: 18.4 µM. With `COc1cc(CNCCc2ccccc2)cc(Cl)c1OCc1ccccc1` the Potency was inconclusive: 16.4 µM [activator, partial curve, poor fit]. In the case of `COc1ccnc(-n2cccc2C#N)c1C#N`, the Potency is reported as inconclusive: 3.66 µM [activator, single point]. With `O=C1c2cccc3cccc(c23)C(=O)N1OS(=O)(=O)c1ccccc1` the Potency was inconclusive: 20.6 µM [activator, single point]. With `O=C1c2ccccc2[C@@H]2C[C@@H](O)[C@H](Nc3ccccc3-c3ccccc3)CCN12` the Potency was “inactive”. With `CC1CCCN(S(=O)(=O)c2ccc(C(=O)NC(C)c3ccccc3)cc2)C1` (stereo not drawn) the Potency was inconclusive: 32.6 µM [activator, single point]. For `COc1ccc(-c2noc(CSc3nnc(-c4ccccc4)n3C)n2)cc1`, the Potency was “inactive”. In the case of `O=C(NCC1CCCO1)c1ccc(NC(=O)c2ccc(Br)cc2)cc1` (stereo not drawn), the Potency is reported as “inactive”. In the case of `Fc1ccc(C2=CC(c3ccc(Br)o3)n3ncnc3N2)cc1` (stereo not drawn), the Potency is reported as inconclusive: 10.3 µM [activator, partial curve, poor fit]. For `Cc1cn(C2OC(COC(=O)c3ccccc3)C(O)C2O)c(=O)[nH]c1=O` (stereo not drawn), the Potency was “inactive”. In the case of `FC(F)(F)c1nc(Sc2ncccc2C(F)(F)F)n[nH]1`, the Potency is reported as “inactive”. For `COc1ccc(C(=O)NNC(=S)NC(=O)c2cc(-c3ccccc3)nc3ccccc23)cc1`, the Potency was inconclusive: 23.1 µM [activator, single point]. For `Cc1cc2c(Nc3ccccc3)ncnc2s1`, the Potency was inconclusive: 32.6 µM [activator, partial curve, poor fit]. With `Clc1ncnc2scc(-c3ccc(Br)cc3)c12` the Potency was inconclusive: 29.1 µM [activator, single point]. For `CSc1nnc(-c2sccc2OCc2ccc(C)cc2)n1C`, the Potency was inconclusive: 20.6 µM [activator, single point]. In the case of `Cc1ccc(-c2cc(C(F)(F)F)n3nc(C(=O)Nc4ccon4)cc3n2)cc1C`, the Potency is reported as inconclusive: 2.31 µM [activator, partial curve, poor fit]. With `COc1cccc(/C=N/NC(=O)c2cc(-c3ccccn3)nc3ccccc23)c1O` the Potency was active: 1.64 µM. With `Nc1c(C(=O)Nc2ccccc2)sc2nc(-c3ccco3)ccc12` the Potency was inconclusive: 18.4 µM [activator, single point]. With `CCOC(=O)[C@@H]1[C@H]2COc3cc(OC)ccc3[C@@H]2N2C(=O)N(c3ccccc3)C(=O)[C@@]12C` the Potency was “inactive”. For `Cc1cccc(/C=C2\Sc3ccc(C(=O)N4CCC(C(N)=O)CC4)cc3N(C)C2=O)c1`, the Potency was “inactive”. For `CCc1nn(C(CC)C(=O)NCc2cccc(OC)c2OC)c(=O)c2cc3occc3n12` (stereo not drawn), the re-replication activation was inconclusive: 148% [activator]. With `Cn1c(=O)n(C)c2cc(NC(=O)c3ccccc3NS(C)(=O)=O)ccc21` the Potency was “inactive”. With `C=CCn1c(N)cc(=O)nc1SCC(=O)N(c1ccccc1)c1ccccc1` the Potency was inconclusive: 29.1 µM [activator, single point]. In the case of `S=C(Nc1ccccc1)Nc1ccc2cn[nH]c2c1`, the Potency is reported as inconclusive: 1.84 µM [activator, full curve, poor fit]. With `CC1(C)C(=O)Nc2ccccc2N1C(=O)COc1ccc(C#N)cc1` the Potency was inconclusive: 16.4 µM [activator, single point]. With `Cc1ccc(NC(=O)c2ccc(NS(=O)(=O)c3c(C)noc3C)cc2)cc1C` the Potency was inconclusive: 29.1 µM [activator, single point]. For `CC(C)C(c1nnnn1C1CCCCC1)N1CCc2ccccc21` (stereo not drawn), the Potency was inconclusive: 7.94 µM [activator, partial curve]. In the case of `COc1ccc(NC(=O)CSC(C)c2nc3ccccc3c(=O)[nH]2)cc1` (stereo not drawn), the Potency is reported as “inactive”. In the case of `Cc1ccc(/C=N/NC(=O)c2ccc(Br)o2)s1`, the Potency is reported as inconclusive: 32.6 µM [activator, partial curve, poor fit]. In the case of `CCOCCCNC(=O)C(c1ccccc1)N(Cc1cccs1)C(=O)c1ccccc1O` (stereo not drawn), the Potency is reported as inconclusive: 0.082 µM [activator, full curve, poor fit]. In the case of `CC(=O)O/N=C1\C(=O)N(Cc2ccc(C)cc2)c2ccccc21`, the Potency is reported as “inactive”. With `Cc1nc(=O)cc(-c2ccccc2)n1-c1ccccc1` the Potency was inconclusive: 25.9 µM [activator, single point]. In the case of `O=S(=O)(Cc1cc(Cl)nc(-c2cccnc2)n1)c1ccccc1`, the Potency is reported as inconclusive: 32.6 µM [activator, partial curve, poor fit]. With `Cc1ccc(S(=O)(=O)N2CCN(C(=O)c3ccccc3OCc3c(C)noc3C)CC2)cc1` the Potency was inconclusive: 29.1 µM [activator, single point]. For `O=C(CN1C(=O)CC(c2ccccc2)S(=O)(=O)c2ccccc21)NC1CCCC1` (stereo not drawn), the Potency was inconclusive: 3.66 µM [activator, full curve, poor fit]. In the case of `O=C(N/N=C/c1ccc(O)cc1O)c1ccc(CN2C(=O)c3cccc4cccc2c34)cc1`, the Potency is reported as inconclusive: 5.8 µM [activator, partial curve, poor fit]. For `CCN(CC)CC(O)Cn1c(-c2cccc(Cl)c2)nc2cc(C)c(C)cc21` (stereo not drawn), the Potency was inconclusive: 20.6 µM [activator, partial curve, poor fit]. With `O=S(=O)(c1ccccc1)N1CN(c2ccc(F)cc2F)c2nc3ccccc3nc21` the Potency was inconclusive: 25.9 µM [activator, partial curve, poor fit]. For `O=Nc1[nH]c(=O)c(/C=C(\O)c2ccccc2)nc1NO`, the Potency was inconclusive: 29.1 µM [activator, single point]. In the case of `Cc1cc2nc(-c3ccc(SCc4ccccc4C#N)nc3)[nH]c2cc1C`, the Potency is reported as inconclusive: 0.461 µM [activator, full curve, poor fit]. With `Cc1ccc(-c2cc3nc(C)cc(NCc4ccco4)n3n2)cc1` the Potency was inconclusive: 18.4 µM [activator, single point]. In the case of `CC(C)c1ccc2[nH]c3nc(SCC(=O)NC4CC4)nnc3c2c1`, the Potency is reported as inconclusive: 29.1 µM [activator, single point].
